# Data published in PubChem BioAssay AID2685 (National Center for Advancing Translational Sciences (NCATS), 2010).
# This is one part of the list. Further columns of the screen follow, without active or inactive calls. Most of these compounds were active or inconclusive in the main read-out, so they are no random draw. Potencies come from curve fits of mixed quality, noted in brackets.
# Assay: qHTS Assay for Lipid Storage Modulators in Drosophila S3 Cells;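 for cell number change: cells counted by Cell Tracker Red CMTPX staining in the red channel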
# Settings: BODIPY lipid droplet fluorescence, 18-24 h; for cell number change: measured here: cell count max response, cells fed with added oleic acid
# Procedure, shortened: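 Drosophila S3 cells loaded with oleic acid (400 uM, as added) and compounds at several concentrations; lipid droplets imaged by 488-nm laser-scanning cytometry, 500–530 nm intensity and object ratio to cell channel. Percent activity normalized to 20 uM Triacsin C.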
# [1] = measured here: lipid fluorescence (Fed channel) AC50, cells fed with added oleic acid
# [2] = measured here: cell number channel AC50, cells fed with added oleic acid
Structure (SMILES),cell number change,AC50 [1],AC50 [2]
Cc1cc(NC(=O)CSCC(=O)Nc2cc(C(F)(F)F)ccc2N2CCCC2)no1,19.7%,"13 µM [rising, partial curve, poor fit]",–
COc1ccc2cc(S(=O)(=O)NCc3cccnc3)ccc2c1,-10.5%,"5.62 µM [rising, single point]","0.82 µM [falling, partial curve, poor fit]"
COc1cccc(/C=N/NC(=O)CN2CC(c3ccccc3)CC2=O)c1OC (stereo not given),17.3%,–,–
O=C(NN=C1c2ccccc2-c2ccccc21)c1ccccn1,-17.3%,"0.92 µM [falling, full curve, poor fit]",–
O=C(O)c1cccc(NC(=S)N/N=C/c2c[nH]c3ccccc23)c1,86.8%,"6.51 µM [rising, single point]","29.1 µM [rising, partial curve, poor fit]"
CCOC(=O)CNC(=O)CSc1nnc(Cn2cnc3ccccc32)n1C,3.81%,"29.1 µM [falling, partial curve]",–
COc1ccc(N2C(=O)c3ccccc3NC2(C)C)cc1,-23%,"2.91 µM [falling, partial curve, poor fit]",–
Cc1nn(-c2ccccc2)c2[nH]c(=O)c(CNCC3CCCO3)cc12 (stereo not given),-4.22%,"1.3 µM [falling, full curve]",–
O=c1cc(C(Cl)(Cl)Cl)oc2c1ccc1ccccc12,-20.2%,"5.8 µM [falling, full curve]",–
CCN(CC)CCNC(=O)c1ccc(N)cc1,20.3%,"0.058 µM [rising, full curve, poor fit]",–
CC1CN(S(=O)(=O)c2ccc(NC(=O)CCCN3C(=O)c4ccccc4C3=O)cc2)CC(C)O1 (stereo not given),–,"6.51 µM [rising, single point]","4.11 µM [rising, single point]"
COc1ccc(Br)cc1CN1CCN(C(=O)c2cccc(F)c2)CC1,15.3%,"20.6 µM [rising, single point]",–
Cc1ccc(CSCC(=O)N/N=C/c2ccc(OCC(=O)Nc3ccc(C)cc3)cc2)cc1,10.3%,–,–
CC(=O)NNC(=O)CN1C(=O)/C(=C/c2ccccc2)SC1=S,10.4%,–,–
Cc1ccc(-c2csc(NC(=O)C[n+]3cc(-c4ccccc4)n4c3CCC4)n2)cc1,4.88%,–,–
Fc1ccc(-c2nnc(CN3CCC(c4nc5ccccc5s4)CC3)o2)cc1,15.2%,"0.0651 µM [falling, full curve, poor fit]",–
CC(NC(=O)CN1CCN(Cc2ccc(Cl)cc2)C1=O)c1ccc2c(c1)OCCO2 (stereo not given),-7.21%,"20.6 µM [falling, single point]",–
CC(C)n1c(SCc2cc(=O)[nH]c3ccccc23)nc2c1c(=O)n(C)c(=O)n2C,27.4%,"2.06 µM [rising, partial curve]",–
COc1ccc2[nH]c(=O)c(CNc3ccccc3)cc2c1,-28.2%,"6.51 µM [falling, partial curve, poor fit]",–
CCN1C(=O)CC(N2CCC(Cc3ccccc3)CC2)C1=O (stereo not given),-30.1%,"0.231 µM [falling, full curve]","2.91 µM [falling, full curve]"
CSc1nsc(SCC(=O)Nc2cccc(C(C)=O)c2)n1,42.9%,–,"29.1 µM [rising, single point]"
CSc1nccc(N2CCN(c3ccc(F)cc3)CC2)n1,-53.7%,"2.06 µM [rising, partial curve]","0.326 µM [falling, partial curve]"
O=C(Nc1ccccc1NS(=O)(=O)c1ccc(F)cc1)C1CCC1,9.26%,"0.116 µM [rising, single point]","0.116 µM [rising, single point]"
COc1ccccc1-c1cc(C(=O)NC2CCCC2)no1,18.3%,–,–
COc1ccc(CCNC(=O)c2cc([N+](=O)[O-])cc([N+](=O)[O-])c2)cc1OC,14%,"0.326 µM [rising, full curve]",–
O=C(CSc1ncn[nH]1)NCCOc1ccccc1,1.55%,"4.11 µM [falling, single point]",–
CCn1cc(CN2CCCC(C(=O)c3ccc(-c4ccccc4)cc3)C2)cn1 (stereo not given),-6.35%,–,–
COc1ccc(CNC(=O)[C@H](C)N2C(=O)N3CCc4c([nH]c5ccccc45)[C@@]3(C)C2=O)cc1OC,-5.5%,"2.31 µM [falling, partial curve]",–
CN(Cc1ccco1)C(=O)CSc1nc(C2CC2)n(-c2ccccc2)n1,-16.6%,"0.259 µM [rising, full curve]",–
CN(C)S(=O)(=O)c1ccc(N2CCCC2)c(C(=O)Nc2ccc(N3CCOCC3)cc2)c1,31.7%,"4.11 µM [rising, full curve]","29.1 µM [rising, single point]"

# One compound at a time (already shown).
# CC1CN(S(=O)(=O)c2ccc(NC(=O)CCCN3C(=O)c4ccccc4C3=O)cc2)CC(C)O1 (stereo not given) reads AC50 [1]: 6.51 µM [rising, single point]; AC50 [2]: 4.11 µM [rising, single point]
# CC(NC(=O)CN1CCN(Cc2ccc(Cl)cc2)C1=O)c1ccc2c(c1)OCCO2 (stereo not given) reads cell number change: -7.21%; AC50 [1]: 20.6 µM [falling, single point]
